Publication doi:10.1101/2022.03.24.485557
No constants are given. Whether binding was seen depends on the method and setting. Binding seen in cells or lysates may run through a third protein. Binding can be weak; no strength is given.

Protein sequences, listed by entry. Tags and fused reporters are not part of them. Lines headed by an entry give the natural chain unless they say otherwise; changes in a name come on top.
UniProt P06804: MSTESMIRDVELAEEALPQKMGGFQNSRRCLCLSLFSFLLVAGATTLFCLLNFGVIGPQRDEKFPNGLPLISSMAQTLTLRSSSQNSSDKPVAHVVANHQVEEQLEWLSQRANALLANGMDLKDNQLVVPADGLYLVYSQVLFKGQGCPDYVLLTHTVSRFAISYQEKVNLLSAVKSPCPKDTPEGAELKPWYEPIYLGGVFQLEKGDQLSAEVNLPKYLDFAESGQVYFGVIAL

Target: Flag-mTNF-α (mouse) (UniProt P06804)
Assay: co-IP

B1: TAK1 (protein, UniProt Q62073 1-579)
chain: MSTASAASSSSSSSASEMIEAPSQVLNFEEIDYKEIEVEEVVGRGAFGVVCKAKWRAKDVAIKQIESESERKAFIVELRQLSRVNHPNIVKLYGACLNPVCLVMEYAEGGSLYNVLHGAEPLPYYTAAHAMSWCLQCSQGVAYLHSMQPKALIHRDLKPPNLLLVAGGTVLKICDFGTACDIQTHMTNNKGSAAWMAPEVFEGSNYSEKCDVFSWGIILWEVITRRKPFDEIGGPAFRIMWAVHNGTRPPLIKNLPKPIESLMTRCWSKDPSQRPSMEEIVKIMTHLMRYFPGADEPLQYPCQYSDEGQSNSATSTGSFMDIASTNTSNKSDTNMEQVPATNDTIKRLESKLLKNQAKQQSESGRLSLGASRGSSVESLPPTSEGKRMSADMSEIEARIVATAGNGQPRRRSIQDLTVTGTEPGQVSSRSSSPSVRMITTSGPTSEKPARSHPWTPDDSTDTNGSDNSIPMAYLTLDHQLQPLAPCPNSKESMAVFEQHCKMAQEYMKVQTEIALLLQRKQELVAELDQDEKDQQNTSRLVQEHKKLLDENKSLSTYYQQCKKQLEVIRSQQQKRQGTS
  binding: binds
